The source of these data is paper PMC12012171.

No constants are given. Whether binding was seen depends on the method and setting. In cells and extracts the contact can be indirect. Some binding calls cover weakened binding; strength is not graded here.

In this assay the target is T1, SNAP-23 (mouse (endogenous in BMMCs)) (UniProt O09044).
T1 sequence: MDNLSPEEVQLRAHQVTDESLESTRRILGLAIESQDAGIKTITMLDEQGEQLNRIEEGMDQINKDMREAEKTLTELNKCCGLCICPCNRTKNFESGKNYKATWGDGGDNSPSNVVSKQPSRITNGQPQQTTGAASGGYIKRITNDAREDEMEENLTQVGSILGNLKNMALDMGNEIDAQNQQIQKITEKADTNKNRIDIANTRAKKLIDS
In words: co-IP; lysates of IgE-primed WT and PRL2-KO BMMCs, resting or stimulated with DNP-BSA for indicated time; incubated with SNAP-23 antibodies overnight at 4 °C, rProtein A/G Agarose Resin 3 h at 4 °C; western blot. In general terms: A western blot detects proteins with antibodies after separation by electrophoresis.

B1: VAMP-8 (protein, UniProt O70404 1-101)
chain: MEEASGSAGNDRVRNLQSEVEGVKNIMTQNVERILSRGENLDHLRNKTEDLEATSEHFKTTSQKVARKFWWKNVKMIVIICVIVLIIVILIILFATGTIPT
In the case of B1, the binding result is listed as “binds weakly”.
